Data reported in publication PMC10403854.
Read-outs that look alike come from different tables or passages of the source. No constants are given. Whether binding was seen depends on the method and setting. Binding seen in cells or lysates may run through a third protein. Here binding means that the protein was enriched with, or labelled near, the bait; the list need not be complete.

Sequences of proteins named here, by UniProt entry; tags and fusion partners are left off. Residues count along the entry.
UniProt Q13586, residues 23-685: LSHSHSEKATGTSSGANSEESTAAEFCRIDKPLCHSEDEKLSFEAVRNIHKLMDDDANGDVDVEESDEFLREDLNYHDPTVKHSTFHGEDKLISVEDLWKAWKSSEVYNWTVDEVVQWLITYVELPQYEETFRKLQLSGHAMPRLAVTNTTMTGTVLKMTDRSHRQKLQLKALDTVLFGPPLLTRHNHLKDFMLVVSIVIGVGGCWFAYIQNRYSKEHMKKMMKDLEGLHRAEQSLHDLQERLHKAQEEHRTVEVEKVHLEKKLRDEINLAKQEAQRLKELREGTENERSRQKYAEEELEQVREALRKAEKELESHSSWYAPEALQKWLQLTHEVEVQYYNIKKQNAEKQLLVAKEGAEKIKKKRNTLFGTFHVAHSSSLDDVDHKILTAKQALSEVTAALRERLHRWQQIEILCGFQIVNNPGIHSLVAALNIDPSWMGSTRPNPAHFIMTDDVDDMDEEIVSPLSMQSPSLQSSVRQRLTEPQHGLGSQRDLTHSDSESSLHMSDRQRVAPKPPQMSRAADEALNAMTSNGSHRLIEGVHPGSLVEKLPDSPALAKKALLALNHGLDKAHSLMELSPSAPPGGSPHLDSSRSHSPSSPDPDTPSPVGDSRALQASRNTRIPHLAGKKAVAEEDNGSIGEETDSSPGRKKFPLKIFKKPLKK
UniProt Q13049: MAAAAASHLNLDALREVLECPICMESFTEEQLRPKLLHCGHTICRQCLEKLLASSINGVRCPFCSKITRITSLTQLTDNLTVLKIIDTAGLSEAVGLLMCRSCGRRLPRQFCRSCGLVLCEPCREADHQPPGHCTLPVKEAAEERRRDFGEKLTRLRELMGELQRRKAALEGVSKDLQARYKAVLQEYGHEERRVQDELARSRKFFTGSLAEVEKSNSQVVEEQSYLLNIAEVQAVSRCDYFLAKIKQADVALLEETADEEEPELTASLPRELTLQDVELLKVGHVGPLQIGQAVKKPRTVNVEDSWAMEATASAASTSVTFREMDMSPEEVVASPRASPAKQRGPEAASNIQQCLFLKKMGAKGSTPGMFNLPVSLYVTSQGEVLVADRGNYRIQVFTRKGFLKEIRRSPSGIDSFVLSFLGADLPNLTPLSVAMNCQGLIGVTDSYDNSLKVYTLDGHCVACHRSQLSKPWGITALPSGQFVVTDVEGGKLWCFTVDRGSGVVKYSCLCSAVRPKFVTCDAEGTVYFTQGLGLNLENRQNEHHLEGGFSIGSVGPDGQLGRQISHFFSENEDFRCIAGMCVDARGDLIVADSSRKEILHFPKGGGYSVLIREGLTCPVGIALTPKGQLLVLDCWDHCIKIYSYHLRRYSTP

Experiments:
[1] = target: stromal interaction molecule 1 (STIM1), endogenous (human (endogenous in DU145 and PC-3)) (UniProt Q13586); assay: affinity purification with mass spectrometry; STIM1 immunoprecipitated from whole-cell lysate; a ~30 kDa band and the immune complexes analysed by mass spectrometry; cells not given
[2] = target: stromal interaction molecule 1 (STIM1), endogenous (human (endogenous in DU145 and PC-3)) (UniProt Q13586); assay: as above; remark: listed apart in the source

Molecule | binding [1] | binding [2]
tripartite motif containing 32 (TRIM32), endogenous (from UniProt Q13049 1-653) (enzyme) | binds | –
tetraspanin 18 (TSPAN18), endogenous (protein, UniProt Q96SJ8 1-248) MEGDCLSCMKYLMFVFNFFIFLGGACLLAIGIWVMVDPTGFREIVAANPLLLTGAYILLAMGGLLFLLGFLGCCGAVRENKCLLLFFFLFILIIFLAELSAAILAFIFRENLTREFFTKELTKHYQGNNDTDVFSATWNSVMITFGCCGVNGPEDFKFASVFRLLTLDSEEVPEACCRREPQSRDGVLLSREECLLGRSLFLNKQGCYTVILNTFETYVYLAGALAIGVLAIELFAMIFAMCLFRGIQ | – | binds
